Measured values: the supplement of paper PMC10849652
The list shows a part of the results.

Protein sequences, listed by entry. Tags and fused reporters are not part of them. Lines headed by an entry give the natural chain unless they say otherwise; changes in a name come on top.
UniProt Q8TDZ2: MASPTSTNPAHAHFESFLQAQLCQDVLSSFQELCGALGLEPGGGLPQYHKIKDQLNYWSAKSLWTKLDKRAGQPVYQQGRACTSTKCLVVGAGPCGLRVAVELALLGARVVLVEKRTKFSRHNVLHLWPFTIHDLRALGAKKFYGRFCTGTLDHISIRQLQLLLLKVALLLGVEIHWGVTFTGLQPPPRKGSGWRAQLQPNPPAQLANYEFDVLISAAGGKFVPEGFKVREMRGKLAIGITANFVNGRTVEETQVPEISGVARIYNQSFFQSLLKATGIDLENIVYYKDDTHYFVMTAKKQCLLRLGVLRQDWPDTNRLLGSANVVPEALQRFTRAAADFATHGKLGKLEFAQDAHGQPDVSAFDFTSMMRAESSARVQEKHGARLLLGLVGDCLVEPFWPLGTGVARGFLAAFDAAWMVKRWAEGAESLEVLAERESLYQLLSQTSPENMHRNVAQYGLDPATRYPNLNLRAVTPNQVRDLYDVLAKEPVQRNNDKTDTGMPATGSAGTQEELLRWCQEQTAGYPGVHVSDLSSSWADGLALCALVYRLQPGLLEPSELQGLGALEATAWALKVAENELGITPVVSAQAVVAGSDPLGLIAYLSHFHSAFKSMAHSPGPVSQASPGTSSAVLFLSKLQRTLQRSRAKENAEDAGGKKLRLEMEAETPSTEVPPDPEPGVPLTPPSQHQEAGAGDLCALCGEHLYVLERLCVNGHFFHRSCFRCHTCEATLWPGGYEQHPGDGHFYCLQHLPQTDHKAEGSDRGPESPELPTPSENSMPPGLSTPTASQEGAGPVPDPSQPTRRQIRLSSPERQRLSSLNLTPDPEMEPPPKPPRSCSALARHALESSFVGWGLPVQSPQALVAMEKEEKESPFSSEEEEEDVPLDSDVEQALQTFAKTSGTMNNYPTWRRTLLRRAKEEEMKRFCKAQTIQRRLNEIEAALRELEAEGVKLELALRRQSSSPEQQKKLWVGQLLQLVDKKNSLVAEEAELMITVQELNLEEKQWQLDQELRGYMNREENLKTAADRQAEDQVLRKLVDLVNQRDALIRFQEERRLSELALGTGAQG
UniProt P39210: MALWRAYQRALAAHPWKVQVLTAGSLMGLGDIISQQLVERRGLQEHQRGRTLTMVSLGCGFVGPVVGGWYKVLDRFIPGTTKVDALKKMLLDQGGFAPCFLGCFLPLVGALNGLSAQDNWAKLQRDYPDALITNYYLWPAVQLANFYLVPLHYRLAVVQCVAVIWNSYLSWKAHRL
UniProt Q86TA1: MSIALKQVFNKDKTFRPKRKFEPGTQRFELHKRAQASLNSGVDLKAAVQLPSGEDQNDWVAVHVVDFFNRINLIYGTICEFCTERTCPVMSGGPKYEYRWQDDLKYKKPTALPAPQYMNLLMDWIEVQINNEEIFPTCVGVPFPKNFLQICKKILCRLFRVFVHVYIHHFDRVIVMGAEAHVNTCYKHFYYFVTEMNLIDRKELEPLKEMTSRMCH
UniProt P08473: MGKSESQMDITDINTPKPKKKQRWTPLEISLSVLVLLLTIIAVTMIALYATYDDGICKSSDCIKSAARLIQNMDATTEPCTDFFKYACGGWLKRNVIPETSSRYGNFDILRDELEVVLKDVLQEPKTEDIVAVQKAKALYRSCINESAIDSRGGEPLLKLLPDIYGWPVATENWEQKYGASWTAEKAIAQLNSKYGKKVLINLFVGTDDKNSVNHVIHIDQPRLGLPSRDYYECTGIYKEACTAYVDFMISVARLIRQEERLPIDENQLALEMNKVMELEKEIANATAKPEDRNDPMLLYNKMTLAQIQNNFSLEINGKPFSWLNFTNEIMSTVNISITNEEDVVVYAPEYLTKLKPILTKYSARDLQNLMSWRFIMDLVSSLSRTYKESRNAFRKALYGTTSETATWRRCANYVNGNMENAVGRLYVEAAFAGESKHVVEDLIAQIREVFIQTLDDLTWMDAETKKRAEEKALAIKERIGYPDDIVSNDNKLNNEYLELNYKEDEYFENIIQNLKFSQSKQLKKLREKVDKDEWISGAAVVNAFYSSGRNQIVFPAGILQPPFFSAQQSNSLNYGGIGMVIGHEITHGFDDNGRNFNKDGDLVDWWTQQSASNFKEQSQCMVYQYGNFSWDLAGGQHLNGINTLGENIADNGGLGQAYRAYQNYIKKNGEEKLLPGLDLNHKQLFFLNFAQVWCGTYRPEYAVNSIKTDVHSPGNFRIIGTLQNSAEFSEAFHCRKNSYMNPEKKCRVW
UniProt Q8IVH4: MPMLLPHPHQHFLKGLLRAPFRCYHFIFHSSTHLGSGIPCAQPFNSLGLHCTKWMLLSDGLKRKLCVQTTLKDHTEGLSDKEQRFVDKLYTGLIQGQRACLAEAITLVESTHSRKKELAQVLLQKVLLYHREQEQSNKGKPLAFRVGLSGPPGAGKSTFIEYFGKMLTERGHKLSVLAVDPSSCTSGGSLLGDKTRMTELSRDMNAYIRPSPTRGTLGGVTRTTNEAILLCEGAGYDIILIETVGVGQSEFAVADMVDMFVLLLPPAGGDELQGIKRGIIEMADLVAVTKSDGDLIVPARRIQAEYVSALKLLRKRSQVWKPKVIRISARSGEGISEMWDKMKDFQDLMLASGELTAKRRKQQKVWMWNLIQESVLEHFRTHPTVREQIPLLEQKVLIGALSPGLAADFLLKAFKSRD
UniProt Q8N4V1: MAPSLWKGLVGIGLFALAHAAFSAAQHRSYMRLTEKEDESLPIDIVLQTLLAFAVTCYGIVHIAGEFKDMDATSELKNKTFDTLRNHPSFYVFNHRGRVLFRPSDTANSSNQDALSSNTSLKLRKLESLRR
UniProt Q9UHC7: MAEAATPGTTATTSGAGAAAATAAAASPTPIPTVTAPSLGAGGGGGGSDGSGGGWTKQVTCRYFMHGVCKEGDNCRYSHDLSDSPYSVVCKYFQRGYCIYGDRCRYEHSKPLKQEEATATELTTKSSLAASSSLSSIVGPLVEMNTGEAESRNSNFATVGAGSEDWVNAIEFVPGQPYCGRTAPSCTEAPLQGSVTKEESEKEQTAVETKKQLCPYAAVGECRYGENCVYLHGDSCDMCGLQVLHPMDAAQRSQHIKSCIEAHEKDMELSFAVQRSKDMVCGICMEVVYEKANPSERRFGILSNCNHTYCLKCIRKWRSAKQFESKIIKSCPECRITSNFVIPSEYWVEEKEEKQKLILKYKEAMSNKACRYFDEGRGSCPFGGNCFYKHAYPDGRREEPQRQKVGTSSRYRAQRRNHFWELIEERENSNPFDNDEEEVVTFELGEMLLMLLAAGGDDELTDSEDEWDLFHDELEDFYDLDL
UniProt Q29983, whole entry, looked up: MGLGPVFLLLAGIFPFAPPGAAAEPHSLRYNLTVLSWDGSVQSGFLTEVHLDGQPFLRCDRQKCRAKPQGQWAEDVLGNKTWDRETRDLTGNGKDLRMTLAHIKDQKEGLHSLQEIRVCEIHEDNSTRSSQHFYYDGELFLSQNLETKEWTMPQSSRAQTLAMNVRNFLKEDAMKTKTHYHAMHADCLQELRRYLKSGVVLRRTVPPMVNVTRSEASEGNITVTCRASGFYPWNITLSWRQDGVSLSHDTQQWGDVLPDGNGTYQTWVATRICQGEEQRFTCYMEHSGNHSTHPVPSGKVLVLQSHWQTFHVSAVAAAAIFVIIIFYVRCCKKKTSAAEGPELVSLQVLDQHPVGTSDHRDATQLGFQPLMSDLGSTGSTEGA
UniProt O96033: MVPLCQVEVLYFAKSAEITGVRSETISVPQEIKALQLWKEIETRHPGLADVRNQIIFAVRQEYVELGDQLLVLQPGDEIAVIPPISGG
UniProt Q13015: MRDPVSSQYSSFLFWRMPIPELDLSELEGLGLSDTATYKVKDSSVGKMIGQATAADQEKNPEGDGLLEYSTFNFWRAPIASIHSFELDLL
UniProt P51511: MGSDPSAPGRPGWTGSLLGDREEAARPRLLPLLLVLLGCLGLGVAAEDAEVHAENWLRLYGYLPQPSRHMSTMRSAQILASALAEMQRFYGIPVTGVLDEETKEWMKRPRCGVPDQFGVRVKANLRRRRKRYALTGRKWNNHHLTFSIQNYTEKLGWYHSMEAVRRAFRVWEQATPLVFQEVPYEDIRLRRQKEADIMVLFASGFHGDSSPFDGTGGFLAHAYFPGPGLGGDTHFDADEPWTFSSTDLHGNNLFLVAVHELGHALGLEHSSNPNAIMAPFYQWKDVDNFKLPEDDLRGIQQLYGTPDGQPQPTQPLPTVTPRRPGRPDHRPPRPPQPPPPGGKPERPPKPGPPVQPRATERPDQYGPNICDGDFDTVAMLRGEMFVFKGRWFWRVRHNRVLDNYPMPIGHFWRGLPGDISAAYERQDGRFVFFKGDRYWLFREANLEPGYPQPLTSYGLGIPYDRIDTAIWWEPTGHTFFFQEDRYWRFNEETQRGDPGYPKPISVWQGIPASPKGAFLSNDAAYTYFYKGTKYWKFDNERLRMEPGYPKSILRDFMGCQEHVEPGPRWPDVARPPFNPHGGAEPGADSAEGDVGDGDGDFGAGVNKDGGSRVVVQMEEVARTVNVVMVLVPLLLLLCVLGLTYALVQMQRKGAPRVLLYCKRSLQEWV
UniProt Q8NB16: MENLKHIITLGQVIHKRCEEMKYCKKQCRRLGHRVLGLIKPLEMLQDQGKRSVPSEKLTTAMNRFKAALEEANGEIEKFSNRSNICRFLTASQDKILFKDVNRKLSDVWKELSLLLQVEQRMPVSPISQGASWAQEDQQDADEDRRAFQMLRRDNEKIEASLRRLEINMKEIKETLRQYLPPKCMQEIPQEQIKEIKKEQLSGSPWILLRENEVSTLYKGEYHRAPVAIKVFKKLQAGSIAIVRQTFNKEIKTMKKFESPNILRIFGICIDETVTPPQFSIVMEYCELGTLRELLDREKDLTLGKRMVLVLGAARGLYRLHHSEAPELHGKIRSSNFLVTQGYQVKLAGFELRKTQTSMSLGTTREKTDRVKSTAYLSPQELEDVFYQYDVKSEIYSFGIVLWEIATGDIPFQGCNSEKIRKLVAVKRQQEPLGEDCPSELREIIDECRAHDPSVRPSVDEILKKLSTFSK
UniProt O95297: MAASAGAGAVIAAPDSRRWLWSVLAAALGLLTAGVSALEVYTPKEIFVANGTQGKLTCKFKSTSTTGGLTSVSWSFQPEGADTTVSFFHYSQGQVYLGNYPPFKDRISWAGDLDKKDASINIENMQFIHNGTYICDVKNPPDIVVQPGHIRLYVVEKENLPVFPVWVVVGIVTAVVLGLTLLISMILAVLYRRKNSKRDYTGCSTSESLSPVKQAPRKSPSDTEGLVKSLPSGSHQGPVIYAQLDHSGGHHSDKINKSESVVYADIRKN
UniProt Q9UJG1: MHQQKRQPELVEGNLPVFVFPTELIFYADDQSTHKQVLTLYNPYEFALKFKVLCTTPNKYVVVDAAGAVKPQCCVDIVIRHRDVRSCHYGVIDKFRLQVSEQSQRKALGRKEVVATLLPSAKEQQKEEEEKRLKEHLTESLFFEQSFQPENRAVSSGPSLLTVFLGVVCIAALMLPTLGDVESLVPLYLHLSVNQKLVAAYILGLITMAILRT
UniProt Q4G0A6: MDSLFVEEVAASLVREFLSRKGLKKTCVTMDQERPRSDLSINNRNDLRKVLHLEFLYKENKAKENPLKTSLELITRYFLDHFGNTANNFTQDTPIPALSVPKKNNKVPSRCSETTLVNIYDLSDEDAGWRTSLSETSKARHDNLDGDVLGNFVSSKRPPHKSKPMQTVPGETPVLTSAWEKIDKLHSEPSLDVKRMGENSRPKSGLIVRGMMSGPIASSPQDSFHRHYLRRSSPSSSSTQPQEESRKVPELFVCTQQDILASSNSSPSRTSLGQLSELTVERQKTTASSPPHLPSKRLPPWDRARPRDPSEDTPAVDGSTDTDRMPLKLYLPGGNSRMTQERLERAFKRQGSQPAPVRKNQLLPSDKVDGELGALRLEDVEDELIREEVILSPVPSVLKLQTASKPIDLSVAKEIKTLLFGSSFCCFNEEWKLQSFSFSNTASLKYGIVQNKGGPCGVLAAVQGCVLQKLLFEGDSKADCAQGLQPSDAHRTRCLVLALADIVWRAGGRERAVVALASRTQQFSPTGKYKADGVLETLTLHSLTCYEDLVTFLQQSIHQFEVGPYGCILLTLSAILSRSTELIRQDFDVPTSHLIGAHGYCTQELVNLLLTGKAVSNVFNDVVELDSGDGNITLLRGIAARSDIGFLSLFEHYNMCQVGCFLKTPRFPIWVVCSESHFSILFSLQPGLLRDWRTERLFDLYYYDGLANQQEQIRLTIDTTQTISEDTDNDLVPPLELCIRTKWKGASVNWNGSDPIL
UniProt Q9H3L0: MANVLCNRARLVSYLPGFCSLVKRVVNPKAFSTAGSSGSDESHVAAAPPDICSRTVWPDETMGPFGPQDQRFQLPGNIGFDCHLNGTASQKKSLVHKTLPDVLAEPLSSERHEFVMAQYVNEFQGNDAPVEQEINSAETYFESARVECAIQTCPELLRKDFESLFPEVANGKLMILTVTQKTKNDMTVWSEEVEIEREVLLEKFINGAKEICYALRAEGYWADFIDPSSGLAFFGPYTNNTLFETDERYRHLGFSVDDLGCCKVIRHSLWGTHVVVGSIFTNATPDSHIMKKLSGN

Legend:
Experiment in all cases: log2 fold change, soluble protein after heating vs DMSO (PISA); higher = thermal stabilisation; K562 cells, 10 uM, 30 min; active = over 0.2 and 3.5 SD of the protein, either way, in both replicates (recomputed)
[1] = compound: NC(=O)c1cnc(N[C@@H]2CCCC[C@@H]2N)nc1Nc1cccc(-n2nccn2)c1
In short: (§1)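 For each measurement, 10 μM compound was applied for 30 min to K562 cells at 2×10^6 cells/mL. Aliquots were heated for 3 min across 48°C-58°C, pooled, and extracted in PBS with 0.5% NP-40 at 4°C; the supernatant after 21,000xg for 90 min was soluble protein. This was quantified by TMTpro 16plex LC-MS/MS with channel sums equalised, and thermal stability was reported relative to control samples from duplicates, on a log2 fold-change scale.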

[2] = compound: NCC(=O)Nc1ccc(-n2nc(C(F)(F)F)cc2-c2ccc3c(ccc4ccccc43)c2)cc1
In short: as §1

[3] = compound: O=C1NC(=O)C(c2cnc3ccccn23)=C1c1cn2c3c(cc(F)cc13)CN(C(=O)N1CCCCC1)CC2
In short: as §1

[4] = compound: NC(=O)Nc1cc(-c2cccc(F)c2)sc1C(=O)N[C@H]1CCCNC1
In short: as §1

[5] = compound: NC1(c2ccc(-c3nc4ccn5c(=O)[nH]nc5c4cc3-c3ccccc3)cc2)CCC1
In short: as §1

[6] = compound: Nc1ccccc1NC(=O)c1ccc(CNC(=O)OCc2cccnc2)cc1 [entinostat]
In short: as §1

[7] = compound: O=C(O)c1ccc2c(c1)nc(Nc1cccc(Cl)c1)c1ccncc12 [silmitasertib]
In short: as §1

[8] = compound: O=C(CCCCCCC(=O)Nc1ccccc1)NO [vorinostat]
In short: as §1

[9] = compound: O=C(CCCCCCNC(=O)c1cnc(N(c2ccccc2)c2ccccc2Cl)nc1)NO [citarinostat]
In short: as §1

[10] = compound: c1cc(OCCN2CCCCC2)cc(-c2n[nH]c3ccc(-c4nnc[nH]4)cc23)c1
In short: as §1

[11] = compound: c1cn2cc(-c3ccc4cn[nH]c4c3)nc(Nc3ccc(N4CCOCC4)cc3)c2n1 [entospletinib]
In short: as §1

Measured: log2 fold change

MIER2 (UniProt Q8N344)
inactive: [1] 0.229 | [2] -0.113 | [3] 0.024

MICAL1 isoform 4 (UniProt Q8TDZ2)
inactive: [4] -0.032 | [1] -0.035 | [5] -0.236 | [2] -0.083 | [6] -0.001 | [7] 0.132 | [3] 0.129

MPV17 (UniProt P39210)
inactive: [4] -0.055 | [1] 0.041 | [5] -0.004 | [6] -0.101 | [8] -0.266 | [9] 0.014 | [7] -0.06 | [3] -0.049 | [10] 0.024 | [11] 0.11

MOB3B (UniProt Q86TA1)
inactive: [1] -0.082 | [5] -0.288 | [2] -0.021 | [8] -0.049 | [7] -0.023

MRPL18 (UniProt Q9H0U6)
inactive: [4] 0.033 | [5] 0.011 | [2] 0.121 | [6] 0.021 | [8] 0.006 | [9] -0.086 | [7] 0 | [3] 0.043 | [10] -0.101 | [11] 0.08

MME (UniProt P08473)
inactive: [5] -0.036 | [2] -0.079 | [9] 0.062 | [7] 0.235 | [10] 0.081 | [11] 0.112

MRNIP (UniProt Q6NTE8)
inactive: [4] 0.022 | [5] 0.067 | [2] -0.049 | [6] -0.039 | [8] 0.012 | [9] 0.073 | [7] 0.094 | [3] 0.005 | [10] 0.003 | [11] 0.193

Fetched one by one from the list above, two records:
MME (UniProt P08473)
inactive: [5] -0.036 | [2] -0.079 | [9] 0.062 | [7] 0.235 | [10] 0.081 | [11] 0.112

MRNIP (UniProt Q6NTE8)
inactive: [4] 0.022 | [5] 0.067 | [2] -0.049 | [6] -0.039 | [8] 0.012 | [9] 0.073 | [7] 0.094 | [3] 0.005 | [10] 0.003 | [11] 0.193

The results go on:

MLX (UniProt Q9UH92)
inactive: [4] 0.144 | [1] -0.115 | [5] -0.177 | [6] 0.005 | [8] 0.095 | [9] 0.139 | [7] -0.091 | [3] -0.086 | [10] -0.175

MMAA (UniProt Q8IVH4)
inactive: [4] 0.087 | [1] 0.011 | [6] 0.099 | [3] -0.064

MID1IP1 (UniProt Q9NPA3)
inactive: [4] 0.016 | [5] 0.1 | [2] 0.015 | [6] -0.183 | [8] -0.12 | [7] 0.025 | [3] 0.113

MKRN3 (UniProt Q13064)
inactive: [4] -0.095 | [1] -0.438 | [2] -0.368 | [6] 0.069 | [9] -0.017 | [3] 0.061 | [10] -0.079 | [11] 0.007

MMGT1 (UniProt Q8N4V1)
inactive: [4] -0.031 | [1] -0.036 | [2] -0.029 | [6] -0.006 | [3] -0.019

MPHOSPH8 isoform 2 (UniProt Q99549)
inactive: [4] 0.257 | [1] 0.004 | [5] 0.161 | [2] -0.018 | [6] -0.191 | [7] -0.083 | [3] 0.189

MINDY2 (UniProt Q8NBR6)
inactive: [5] 0.271 | [7] -0.19 | [3] 0.186

MKRN1 (UniProt Q9UHC7)
inactive: [5] 0.219 | [2] -0.055 | [8] 0.024 | [7] 0.057 | [3] 0.174

MORC2 (UniProt Q9Y6X9)
inactive: [1] -0.193 | [5] -0.118 | [7] -0.066 | [3] -0.151

MICA (UniProt Q29983)
inactive: [4] -0.088 | [1] 0.006 | [2] -0.033 | [6] 0.031 | [8] 0.031

MICAL2 (UniProt O94851)
inactive: [1] -0.201 | [5] 0.094 | [2] -0.092 | [8] -0.019 | [9] 0.047 | [7] 0.186 | [3] 0.052 | [10] -0.232 | [11] 0.077

MOCS2 (UniProt O96033)
inactive: [4] 0.101 | [1] 0.149 | [6] 0.043 | [8] 0.128 | [9] 0.031 | [10] -0.017 | [11] 0.009

MLH1 (UniProt P40692)
inactive: [1] 0.058 | [5] -0.102 | [8] -0.042 | [7] -0.017 | [3] -0.098

MRM1 (UniProt Q6IN84)
inactive: [4] 0.037 | [1] -0.011 | [5] 0.188 | [2] 0.013 | [6] -0.024 | [9] -0.085 | [7] 0.118 | [3] 0.225 | [10] -0.064 | [11] 0.094

MLLT10 (UniProt P55197)
inactive: [5] 0.004 | [8] 0.247 | [7] -0.364 | [3] 0.081

MMRN1 (UniProt Q13201)
inactive: [4] -0.124 | [6] -0.08

MLLT11 (UniProt Q13015)
inactive: [4] 0.192 | [5] -0.075 | [2] 0.21 | [6] 0.109 | [8] 0.05 | [9] 0.119 | [7] -0.123 | [3] 0.012 | [10] -0.062 | [11] -0.087

MMP15 (UniProt P51511)
inactive: [8] -0.073

MLKL (UniProt Q8NB16)
inactive: [4] -0.159 | [2] -0.015 | [6] 0.052 | [8] 0.074 | [9] 0.006 | [3] 0.206 | [10] -0.083 | [11] -0.112

MPZL1 isoform 3 (UniProt O95297)
inactive: [1] 0.024

MRAS (UniProt O14807)
inactive: [5] -0.067 | [8] 0.121 | [9] -0.072 | [7] -0.058 | [10] -0.188 | [11] 0.107

MOB2 isoform 3 (UniProt Q70IA6)
inactive: [5] -0.251 | [8] 0.044 | [7] 0.062 | [3] -0.368

MOSPD1 isoform 3 (UniProt Q9UJG1)
inactive: [5] -0.011 | [8] 0.068 | [7] 0.195

MICB, A0A140T979
inactive: [1] 0.045 | [5] -0.098 | [2] 0.076 | [8] -0.087 | [9] -0.002 | [7] 0.021 | [3] 0.013 | [10] -0.059 | [11] -0.01

MINDY4 (UniProt Q4G0A6)
inactive: [4] 0.033 | [6] 0.035

MMADHC (UniProt Q9H3L0)
inactive: [1] 0.035 | [5] 0.014 | [2] 0.057 | [8] 0.157 | [9] 0.141 | [7] 0.031 | [10] 0.031

MRPL52 (UniProt Q86TS9)
inactive: [4] 0.123 | [6] 0.122 | [9] -0.135 | [10] 0.001 | [11] 0.06

MR1 (UniProt Q95460)
inactive: [5] -0.169 | [7] 0.063 | [3] -0.022

MRM2 (UniProt Q9UI43)
inactive: [1] -0.202 | [2] -0.211
